These are yes or no findings as the source states them, for the method shown. Binding seen in cells or lysates may run through a third protein. Some results given as binding are weak or reduced against the parent protein; the word gives no strength.
Biological target: microtubule-associated protein RP/EB family member 1 (MAPRE1), full length, GST-tagged (UniProt Q15691)
Assay: pull-down; HUVECs co-transfected with GST-MAPRE1 and HA-FTβ (or their truncated forms); cell lysate incubated with glutathione Sepharose 4B beads at 4°C for 2 hours, washed, Western blot; in one panel cells treated with DMSO or 10 μM lonafarnib for 24 hours before the pull-down (association decreased)

Amino acid sequences for entries named in this document (tags omitted). Chains listed by the source or under a name are the forms on record and can include a tag or linker. Residues count along the entry.
UniProt Q15691: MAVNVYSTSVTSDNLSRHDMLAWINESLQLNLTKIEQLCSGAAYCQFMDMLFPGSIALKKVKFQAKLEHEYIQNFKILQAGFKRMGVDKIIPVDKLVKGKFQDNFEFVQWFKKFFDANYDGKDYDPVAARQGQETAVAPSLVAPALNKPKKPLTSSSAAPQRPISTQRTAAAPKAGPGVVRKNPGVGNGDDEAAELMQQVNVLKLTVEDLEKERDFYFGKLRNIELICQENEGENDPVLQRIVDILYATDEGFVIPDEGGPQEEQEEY
FTβ amino acids 1–373, HA-tagged (P49356, residues 1-373): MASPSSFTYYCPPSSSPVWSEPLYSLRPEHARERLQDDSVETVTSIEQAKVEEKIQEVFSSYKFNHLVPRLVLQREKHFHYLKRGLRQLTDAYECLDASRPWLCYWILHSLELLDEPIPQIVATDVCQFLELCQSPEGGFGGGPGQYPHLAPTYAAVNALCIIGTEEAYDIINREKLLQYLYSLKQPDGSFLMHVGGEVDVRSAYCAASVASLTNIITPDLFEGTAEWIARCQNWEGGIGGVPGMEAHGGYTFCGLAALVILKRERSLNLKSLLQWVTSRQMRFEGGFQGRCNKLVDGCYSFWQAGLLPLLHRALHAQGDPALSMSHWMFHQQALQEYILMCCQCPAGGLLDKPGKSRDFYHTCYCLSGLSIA
FTβ amino acids 1–138, HA-tagged (P49356, residues 1-138): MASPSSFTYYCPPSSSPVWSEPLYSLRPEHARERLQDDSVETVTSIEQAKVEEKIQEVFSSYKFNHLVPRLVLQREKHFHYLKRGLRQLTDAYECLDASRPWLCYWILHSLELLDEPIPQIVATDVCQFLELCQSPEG
FTβ amino acids 76–437, HA-tagged (P49356, residues 76-437): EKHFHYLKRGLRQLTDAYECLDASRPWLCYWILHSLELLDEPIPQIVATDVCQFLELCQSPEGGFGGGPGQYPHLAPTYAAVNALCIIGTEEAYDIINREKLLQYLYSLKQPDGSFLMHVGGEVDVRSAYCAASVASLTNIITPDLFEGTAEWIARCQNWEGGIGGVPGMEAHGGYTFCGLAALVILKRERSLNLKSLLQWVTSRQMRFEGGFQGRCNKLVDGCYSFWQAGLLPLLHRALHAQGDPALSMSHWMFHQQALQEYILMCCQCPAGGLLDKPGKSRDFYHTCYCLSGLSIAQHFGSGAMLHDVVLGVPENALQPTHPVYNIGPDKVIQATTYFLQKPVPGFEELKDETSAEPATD
FTβ amino acids 76–373, HA-tagged (P49356, residues 76-373): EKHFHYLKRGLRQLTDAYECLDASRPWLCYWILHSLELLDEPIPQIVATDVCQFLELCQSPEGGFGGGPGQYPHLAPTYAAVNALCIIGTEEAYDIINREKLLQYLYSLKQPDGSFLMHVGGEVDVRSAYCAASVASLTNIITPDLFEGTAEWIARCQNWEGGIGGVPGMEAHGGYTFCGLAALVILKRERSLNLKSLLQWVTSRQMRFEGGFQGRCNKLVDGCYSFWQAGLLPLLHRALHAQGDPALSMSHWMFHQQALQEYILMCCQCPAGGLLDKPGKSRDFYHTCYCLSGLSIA

Substance	binding
FTβ amino acids 1–138, HA-tagged (from UniProt P49356 1-138) (domain or fragment)	no binding
FTβ amino acids 1–373, HA-tagged (from UniProt P49356 1-373) (domain or fragment)	binds
FTβ amino acids 76–373, HA-tagged (from UniProt P49356 76-373) (domain or fragment)	binds
FTβ amino acids 76–437, HA-tagged (from UniProt P49356 76-437) (domain or fragment)	binds

— PMC4390146
